No constants are given. Whether binding was seen depends on the method and setting. For part of these data: Binding can be weak; no strength is given. For part of these data: Binding seen in cells or lysates may run through a third protein. For part of these data: Tags and fused reporters may be left off the sequences shown.
T1: MazE-mt9 with N-terminal 8 x His-tag, co-expressed with MazF-mt9 (Mycobacterium tuberculosis H37Rv) (UniProt P9WJ85)
T1 sequence: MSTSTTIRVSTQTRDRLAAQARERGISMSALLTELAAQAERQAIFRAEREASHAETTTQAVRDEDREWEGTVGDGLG

T2: MazE-mt1 with N-terminal 8 x His-tag, co-expressed with MazF-mt9 (Mycobacterium tuberculosis H37Rv) (UniProt P0CL61)
T2 sequence: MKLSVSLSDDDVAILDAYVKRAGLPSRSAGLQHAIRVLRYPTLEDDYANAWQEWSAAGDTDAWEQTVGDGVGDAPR

B1: MazE-mt9 (natural protein)
chain: T1 sequence

What was measured:
[1] = molecular target: T1, MazE-mt9 with N-terminal 8 x His-tag, co-expressed with MazF-mt9 (Mycobacterium tuberculosis H37Rv); assay: pull-down
[2] = molecular target: T2, MazE-mt1 with N-terminal 8 x His-tag, co-expressed with MazF-mt9 (Mycobacterium tuberculosis H37Rv); assay: pull-down
[3] = molecular target: MazF-mt9 (Mycobacterium tuberculosis); assay: crystal structure

Molecule | binding [1] | binding [2] | binding [3]
MazF-mt9 co-expressed with a MazE from pETDuet1 (Mycobacterium tuberculosis) (enzyme) | no binding | binds | 
B1 |  |  | binds
